# Experimental data published in US6936586B1, “Synthetic IL-10 analogues” (Steeno Research Group A/S, priority 1996, dated 2005).
# Where “and” joins values, the source holds several entries; their conditions need not be identical. Identical values can stand only once. Part of at least one peptide drawing is inferred or uncertain, most often the ends. Peptide text beside a SMILES is read from it.
# How the values were obtained:
# [1] = test system: acute pancreatitis induced in rabbits by 5% bile acid; experiment: Acute pancreatitis induced by bile acid in rabbits, human IT9302; assay type: in vivo, New Zealand white rabbits (Oryctolagus cuniculus); conditions: for content of IL-8 in serum / content of TNF-α in serum: human IT9302 30 minutes before 5% bile acid, ± SEM
# human CD8+ T cells = experiment: Desensitization of human CD8+ T cells towards rhIL-10 induced chemotaxis; assay type: cell-based; conditions: IT9302 added to cells 30 minutes before; rhIL-10 10 ng/ml
# human monocytes [2] = experiment: Class II MHC (HLA-DR) antigen expression on IFN-γ stimulated human monocytes, flow cytometry; assay type: cell-based; conditions: 1 ng/ml IT9302 before IFN-γ 10 ng/ml, 40 hours; unstimulated 36.8%, IFN-γ alone 58.4%
# Protocol: HLA-DR expression on human monocytes. The monocytes were isolated from fresh, heparinized blood by adherence to plastic at 37° C. in RPMI 1640 containing 10% FCS. After incubation, the supernatant was removed, Hank's solution (4° C. with 1% FCS) was added, and the cells were detached by cooling at […] for 15 minutes and gentle banging to the table. Monocytes were stimulated (2×10^6 cells/ml) in RPMI 1640 added 2% FCS, with IFN-γ (10 ng/ml), or rhIL-10 (100, 10, 1 ng/ml) added before IFN-γ, or IT9302 (10, 1, 0.1 ng/ml) added before IFN-γ for 40 hours. The cells were detached from the wells by cooling as before. Fresh, non-fixed cells were used for surface typing by antihuman antibody for HLA-DR. The cells were resuspended in Hank's solution with 1% FCS, 1×10^6 cells/ml and FITC conjugated mouse-anti-human HLA DR, DP, […] antibodies were added (F 0817, DAKO Denmark) for 45 minutes. The cells were washed three times in Hank's solution and a FACS analysis was performed on a Coulter-Epics XL-MCL flow cytometer at a wavelength of 488 nm. Non-specific binding was determined with a non-relevant Fitch conjugated antibody (mouse anti goat DAKO F 479).
# The monocytes were purified as described above and stimulated for 40 hours by IFN-γ (10 ng/ml) and/or rhIL-10 and/or IT9302 added 30 minutes before IFN-γ. […]
# CD4+ T cells = experiment: Chemotactic effect on CD4+ T cells; assay type: cell-based, human; conditions: data not shown
# [3] = IT9302 cream on the skin of two applicants/researchers: CD8+ T cells and serum IRAP; assay type: in vivo, human; conditions: total dose 400 to 500 μg, 24 hours
# PBMCs = experiment: T cell proliferation, PHA stimulated PBMC, 3H-thymidine incorporation; assay type: cell-based, human; conditions: 72 hours, 3H-thymidine last 18 hours
# Protocol: Proliferation assay. PBMCs (2×10^5) were cultivated in 200 μl of RPMI medium with 10% FCS for 72 hours with PHA 0.5 μl/ml and rhIL-10 (1, 10, 100 ng/ml) or IT9302 (0.1, 1, 10 ng/ml) in triplets. The last 18 hours ^3H-thymidine was added with 0.5 μCi/well (Amersham, Denmark). The cells were harvested on a filter (Glass Microfibre Filters, Whatman, Cat. No. 1822 849) and scintillation fluid (Ultima, Gold MV, Packard) was added. The scintillation counting was made on Tri-Carb model 1600 TR, Packard.
# PBMC's were stimulated with PHA as described above and rhIL-10 and IT9302 were added for 72 hours, and the ^3H-thymidine incorporation was measured for the last 18 hours.
# [4] = test system: LPS induced leukopenia in swine; experiment: LPS induced shock and leukopenia in swine; assay type: in vivo; conditions: swine N=3; IT9302 0.1 mg/kg intravenous 30 minutes before LPS intravenous; preliminary experiment
# cutaneous HPV infection = experiment: IT9302 cream on the skin: common warts (cutaneous HPV infection); assay type: in vivo, human
# human leukocytes = experiment: TNF-α production during human mixed leukocyte reaction (MLR), Western blotting; assay type: cell-based; conditions: allogeneic human leukocytes, 4 days
# human monocytes [5] = experiment: Suppression of the chemotactic response of human monocytes towards MCAF/MCP-1; assay type: cell-based; conditions: monocytes incubated 30 minutes with IT9302; MCAF/MCP-1 10 ng/ml; dose-dependent
# CD8+ human T lymphocytes = experiment: Chemotactic effect on human CD8+ T lymphocytes; assay type: cell-based; conditions: IT9302 in lower chamber, serial dilutions
# [6] = IT9302 cream on the skin: chronic joint pains due to arthritis; assay type: in vivo, human; conditions: approximately 500 μg in a cream basis on the skin for 24 hours; one person, observed three times; symptoms recurred during following week
# human CD4+ T lymphocytes = experiment: Suppression of the chemotactic response of CD4+ T lymphocytes towards IL-8; assay type: cell-based; conditions: IT9302 added to cells 30 minutes before; rhIL-8 10 ng/ml; dose-dependent
# human monocytes [7] = experiment: Inhibition of spontaneous IL-8 production by human monocytes; assay type: cell-based; conditions: 0.1 ng/ml IT9302; monocytes 3.0×10^6 cells/ml, 40 hours
# [8] = test system: human peripheral blood mononuclear cells (PBMC); experiment: Inhibition of IL-1β induced IL-8 production by human PBMC; assay type: cell-based
# human monocytes [9] = experiment: Production of interleukin-1 receptor antagonist protein (IRAP) by human monocytes; assay type: cell-based
# human monocytes [10] = experiment: Determination of apoptosis in monocytes (DNA typing, propidium iodide flow cytometry); assay type: cell-based; conditions: with IFN-γ stimulation; non-stimulated 6.6%, IFN-γ alone 4.1%
# Protocol: Alternatively cells were fixed in 10% DMSO, 40% RPMI 1640 and 50% sterile FCS, and stored at −80° C. and used for DNA typing.
# DNA typing of the stimulated monocytes. The fixed cells were incubated in 70 ethanol for 60 minutes and washed twice in Hank's solution. 1×10^6 cells were resuspended in 250 μl of RNase 1 μg/ml in 1.12% sodium citrate, pH 8.4 (Ribonuclease A, Pharmacia No. 17-0442-01) and incubated at 37° C. for 3 minutes. Thereafter, 250 μl of propidiumiodide (50 μg/ml in Hank's solution) was added, and cells were incubated in the dark for 30 minutes. After this the cells were washed twice in Hank's solution (Jensen et al., (110)). The DNA content was measured by flow cytometry on a Coulter-Epics XL-MCL at a wavelength of 550 nm.
# The IFN-γ stimulated monocytes from above were incubated with propidium iodide and the DNA content was measured by flow cytometry. The fraction of cells expressing DNA in G1 or G2 phase of cell proliferation was measured and also the fraction expressing apoptosis.
# [11] = test system: normal human CD4+ T cells; experiment: IL-4 production by cultured CD4+ T lymphocytes, ECL-Western blotting; assay type: cell-based; conditions: IT9302 10 ng/ml or IL-10 100 ng/ml, 3 days, cytosolic fractions
# Protocol: CD4+ T lymphocytes were purified from heparinized normal human blood. Following Lymphoprep™ (Nycomed Pharma, Oslo, Norway) gradient centrifugation, the mononuclear cells were further sorted at 4° C. using Dynabeads (Dynal AS, Norway) coated with monoclonal anti-CD4 antibodies. The beads were detached by adding polyclonal anti-mouse antibody (Dynal AS, Norway). The purity of the positively selected cells were higher than 99% as judged by FACS analysis. […]
# Cells or freeze-dried cell culture supernatants were used for IL-4 protein content determination. […] The blots were then incubated with a polyclonal goat anti-human IL-4 antibody (R&D Systems, UK) followed by a horseradish peroxidase-labelled secondary antibody (Cat. no. RPN 2106 ECL, Amersham, UK), and the immunostaining was detected by exposing a film (Kodak X-OMAT-S, USA) for 90 seconds.
# Thus, CD4+ T cells, purified as described in “Methods for T cell chemotaxis”, and cultured as described in the section “Determination of IL-4 production by CD4+ T lymphocytes”, were stimulated for 3 days with IT9302 (10 ng/ml) or IL-10 (100 ng/ml). Cytosolic fractions were collected and analyzed for their IL-4 content using Western blotting (FIG. 9) and a goat anti-human IL-4 polyclonal antibody.
structure (smiles),measurement,setting,value
"CC[C@H](C)[C@H](NC(=O)[C@H](CCCCN)NC(=O)[C@H](CCSC)NC(=O)[C@@H](NC(=O)[C@H](CCSC)NC(=O)[C@H](Cc1ccc(O)cc1)NC(=O)[C@H](C)N)[C@@H](C)O)C(=O)N[C@@H](CCCNC(=N)N)C(=O)N[C@@H](CC(N)=O)C(=O)O [IT9302, NH2-Ala-Tyr-Met-Thr-Met-Lys-Ile-Arg-Asn-COOH] (H-AYMTMKIRN-OH)",content of IL-8 in serum,"[1]; 0 hours, untreated 1154",875 ± 181 pg/mL
same,content of TNF-α in serum,"[1]; 0 hours, untreated 1210",347 ± 77 pg/mL
same,content of IL-8 in serum,"[1]; 1 hour, untreated 780",695 ± 205 pg/mL
same,content of TNF-α in serum,"[1]; 1 hour, untreated 1206",739 ± 339 pg/mL
same,content of TNF-α in serum,"[1]; 3 hours, untreated 1918",697 ± 146 pg/mL
same,content of IL-8 in serum,"[1]; 3 hours, untreated 2210",900 ± 178 pg/mL
same,content of TNF-α in serum,"[1]; 6 hours, untreated 1662",658 ± 156 pg/mL
same,content of IL-8 in serum,"[1]; 6 hours, untreated 2690",1037 ± 244 pg/mL
same,content of TNF-α in serum,"[1]; 9 hours, untreated 1884",872 ± 594 pg/mL
same,content of IL-8 in serum,"[1]; 9 hours, untreated 2196",1207 ± 210 pg/mL
same,content of TNF-α in serum,"[1]; 12 hours, untreated 915",463 ± 203 pg/mL
same,content of IL-8 in serum,"[1]; 12 hours, untreated 1833",1087 ± 216 pg/mL
same,"levels of pancreatic enzymes in the blood (amylase, lipase and tryptase)",[1]; peaks 3-6 hours after induction of acute pancreatitis,none of these enzymes appeared to be affected
same,interstitial neutrophil infiltration in the lungs,"[1]; rabbit, in vivo",significant reduction
same,"pancreatic histology, treated versus untreated group","[1]; rabbit, in vivo",Histologically similar pancreatic changes
same,responsiveness of CD8+ T cells towards rhIL-10 (chemotaxis),human CD8+ T cells,suppressed responsiveness
same,MHC II antigen expression in the cell population,human monocytes [2],31.2%
same,chemotactic effect on CD4+ T cells,CD4+ T cells,no effect
same,serum IRAP concentration after application,"[3]; from 1 ng/ml, non-treated volunteers never exceeded 1.1 ng/ml",2 ng/mml
same,increase in total number of CD8+ T cells,"[3]; under plastic occlusion on the skin of the back, two persons",60% and 90%
same,optimum concentration for downregulation of cell proliferation,PBMCs,10 ng/mL
same,LPS induced leukopenia (total leukocyte count),[4],prevented leukopenia
same,recurrence of the infection at follow-up,cutaneous HPV infection; follow-up control 2 months later,no signs of recurrence
same,common warts after application of IT9302-containing cream,"cutaneous HPV infection; two persons, inflammation 3 to 4 days after application, outcome after 10 to 11 days",no clinical signs of remaining wart infection
same,effect on the mixed leukocyte reaction (MLR),human leukocytes,does not significantly reduce
same,production of TNF-α during the MLR,"human leukocytes; cytosolic fractions, Western blotting",significant reduction
same,chemotactic response of monocytes towards MCAF/MCP-1,human monocytes [5],inhibits the chemotactic response
same,chemotactic migration of CD8+ human T lymphocytes in vitro,CD8+ human T lymphocytes,induced the chemotactic migration
same,chronic joint pains due to arthritis,[6],strong reduction in chronic joint pains
same,response of CD4+ T cells towards IL-8 (chemotaxis),human CD4+ T lymphocytes,inhibits the response
same,"IL-8 production, % of the spontaneous production in vitro",human monocytes [7],35%
same,IL-1β induced production of IL-8 by PBMC,"[8]; IT9302 for 24 h, second dose, r-hIL-1β 1 ng/ml 1 h later, 48 h total, IL-8 ELISA",inhibited
same,time IT9302 must be added before IL-1 to counteract IL-1-induced IL-8 production,[8]; addition 1 hour before IL-1 did not inhibit (data not shown),at least 16 hours
same,"maximum IRAP production, separate experiment","human monocytes [9]; 1-10 ng/ml IT9302, spontaneous production 3.5 ng/ml",10.6 ± 0.6 ng/mL
same,maximum level of IRAP induction,"human monocytes [9]; IT9302 concentrations exceeding 10 ng/ml, monocytes, 24 hours",60 ng/mL
same,fraction of monocytes expressing apoptosis,human monocytes [10],9.3%
same,production of IL-4 by cultured normal human CD4+ T cells,[11],induce the production of IL-4
